PubChem BioAssay AID1259405, NCATS – 2018

- Screen: 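Mouse-designed siRNAs used to find CHO productivity engineering targets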 (primary screen)
- System: Chinese hamster CHO-K1 ovary cells with stable secreted eGFP expression
- Reagent: single siRNA against mouse genes, 0.8 pmol siRNA per well (2 µl of 400 nM stock)
- Time to read-out: 3 days
- Measured: 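Per-well intracellular GFP measured by laser scanning cytometry, plus viability from ATP luminescence, each relative to plate median of non-targeting control wells, in %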
- Scale: GFP, % of control: higher = more GFP per well, higher productivity; viability (ATP), % of control: higher = more viable cells (more ATP)
- Rule for the call: 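a knock-down is called active if GFP reaches 120% or more of non-targeting control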
Here is a random part of about 50,000 reagents tested. Of all reagents, about 4,000 (8%) were called active. 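Mouse siRNA library applied to hamster cells; one well for each siRNA.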 Entries without a mark were called inactive. The numbers tell different reagents against one gene apart.

target gene,reagent no.,"GFP, % of control","viability (ATP), % of control"
Ccr2 (C-C motif chemokine receptor 2),1,48.4,25.7
Ccr2 (C-C motif chemokine receptor 2),2,86.5,96.5
Ccr2 (C-C motif chemokine receptor 2),3,69.3,60.6
Agfg1 (ArfGAP with FG repeats 1),1,129 (active),86.4
Agfg1 (ArfGAP with FG repeats 1),2,132 (active),82.1
Agfg1 (ArfGAP with FG repeats 1),3,49.6,40.4
Zfp97 (zinc finger protein 97),1,72.6,82
Zfp97 (zinc finger protein 97),2,105,96.2
Zfp97 (zinc finger protein 97),3,74,59.1
Pcdha6 (protocadherin alpha 6),1,94.1,61.9
Pcdha6 (protocadherin alpha 6),2,37,23.5
Pcdha6 (protocadherin alpha 6),3,106,46.6
Gnai1 (G protein subunit alpha i1),1,74,78.5
Gnai1 (G protein subunit alpha i1),2,56.9,56.3
Gnai1 (G protein subunit alpha i1),3,30.3,28.6
"Bdh1 (3-hydroxybutyrate dehydrogenase, type 1)",1,95.2,97.7
"Bdh1 (3-hydroxybutyrate dehydrogenase, type 1)",2,65.5,74.5
"Bdh1 (3-hydroxybutyrate dehydrogenase, type 1)",3,53.5,70.8
Smarcd1 (SWI/SNF related BAF chromatin remodeling complex subunit D1),1,66.1,72.3
Smarcd1 (SWI/SNF related BAF chromatin remodeling complex subunit D1),2,30.1,36.2
Smarcd1 (SWI/SNF related BAF chromatin remodeling complex subunit D1),3,55.1,63.1
Gmppb (GDP-mannose pyrophosphorylase B),1,103,70.1
Gmppb (GDP-mannose pyrophosphorylase B),2,83.1,116
Gmppb (GDP-mannose pyrophosphorylase B),3,62.5,84.1
Elf2 (E74-like factor 2),1,95.5,59.2
Elf2 (E74-like factor 2),2,80,69.8
Elf2 (E74-like factor 2),3,138 (active),108
Tial1 (Tia1 cytotoxic granule-associated RNA binding protein-like 1),1,121 (active),87.6
Tial1 (Tia1 cytotoxic granule-associated RNA binding protein-like 1),2,134 (active),67.2
Tial1 (Tia1 cytotoxic granule-associated RNA binding protein-like 1),3,96.4,92.8
Pak2 (p21 (RAC1) activated kinase 2),1,31.7,35.6
"Col5a3 (collagen, type V, alpha 3)",1,44.7,40.3
"Col5a3 (collagen, type V, alpha 3)",2,41.3,34.4
"Col5a3 (collagen, type V, alpha 3)",3,123 (active),50.1
Stag1 (STAG1 cohesin complex component),1,101,59.6
Stag1 (STAG1 cohesin complex component),2,100,87.4
Stag1 (STAG1 cohesin complex component),3,91.5,65.3
Pcdhb14 (protocadherin beta 14),1,82.1,93.6
Pcdhb14 (protocadherin beta 14),2,81.7,78.3
Golph3 (golgi phosphoprotein 3),1,80.5,80.7
Golph3 (golgi phosphoprotein 3),2,70.8,50
Golph3 (golgi phosphoprotein 3),3,120 (active),53.7
Acvr2a (activin receptor IIA),1,85.8,85.7
Trh (thyrotropin releasing hormone),1,56.3,63.4
Trh (thyrotropin releasing hormone),2,64.4,86.9
Trh (thyrotropin releasing hormone),3,103,58.1
Rnf113a1 (ring finger protein 113A1),1,76.2,71.7
Rnf113a1 (ring finger protein 113A1),2,63.9,70.8
Rnf113a1 (ring finger protein 113A1),3,76,56.9
Emc9 (ER membrane protein complex subunit 9),1,80.5,80.1
Emc9 (ER membrane protein complex subunit 9),2,138 (active),114
Emc9 (ER membrane protein complex subunit 9),3,67.2,54.4
Git1 (GIT ArfGAP 1),1,154 (active),108
Git1 (GIT ArfGAP 1),2,193 (active),116
Git1 (GIT ArfGAP 1),3,95.9,67.9
Lcn2 (lipocalin 2),1,100,82.3
Lcn2 (lipocalin 2),2,69.6,55.3
Lcn2 (lipocalin 2),3,70.7,88.7
Jkamp (JNK1/MAPK8-associated membrane protein),1,77.5,72.2
Jkamp (JNK1/MAPK8-associated membrane protein),2,89.7,93.6
Jkamp (JNK1/MAPK8-associated membrane protein),3,88.2,58.4
"Spg21 (SPG21, maspardin)",1,84.3,89.4
"Spg21 (SPG21, maspardin)",2,92.6,136
"Spg21 (SPG21, maspardin)",3,113,115
Exd1 (exonuclease 3'-5' domain containing 1),1,56.2,63.8
Exd1 (exonuclease 3'-5' domain containing 1),2,88,101
Exd1 (exonuclease 3'-5' domain containing 1),3,114,121
"H2-M9 (histocompatibility 2, M region locus 9)",1,54.9,63
"H2-M9 (histocompatibility 2, M region locus 9)",2,87.9,76.3
"H2-M9 (histocompatibility 2, M region locus 9)",3,73,75.2

Laid out differently: entries from further up.
{"target gene":"Rnf113a1 (ring finger protein 113A1)","reagent no.":3,"GFP, % of control":76,"viability (ATP), % of control":56.9}
{"target gene":"Emc9 (ER membrane protein complex subunit 9)","reagent no.":1,"GFP, % of control":80.5,"viability (ATP), % of control":80.1}
{"target gene":"Emc9 (ER membrane protein complex subunit 9)","reagent no.":2,"GFP, % of control":"138 (active)","viability (ATP), % of control":114}
{"target gene":"Emc9 (ER membrane protein complex subunit 9)","reagent no.":3,"GFP, % of control":67.2,"viability (ATP), % of control":54.4}
{"target gene":"Git1 (GIT ArfGAP 1)","reagent no.":1,"GFP, % of control":"154 (active)","viability (ATP), % of control":108}
{"target gene":"Git1 (GIT ArfGAP 1)","reagent no.":2,"GFP, % of control":"193 (active)","viability (ATP), % of control":116}
{"target gene":"Git1 (GIT ArfGAP 1)","reagent no.":3,"GFP, % of control":95.9,"viability (ATP), % of control":67.9}

Continued.
target gene,reagent no.,"GFP, % of control","viability (ATP), % of control"
Or8g2 (olfactory receptor family 8 subfamily G member 2),1,103,63.6
Or8g2 (olfactory receptor family 8 subfamily G member 2),2,69.6,47.5
Or8g2 (olfactory receptor family 8 subfamily G member 2),3,55,63.9
Ip6k1 (inositol hexaphosphate kinase 1),1,134 (active),65
Ip6k1 (inositol hexaphosphate kinase 1),2,62.1,65.4
Ip6k1 (inositol hexaphosphate kinase 1),3,85.2,104
Fcf1 (FCF1 rRNA processing protein),1,85.1,74.6
Fcf1 (FCF1 rRNA processing protein),2,70.6,65.5
Fcf1 (FCF1 rRNA processing protein),3,99.4,57.4
Gripap1 (GRIP1 associated protein 1),1,70.9,72.7
Gripap1 (GRIP1 associated protein 1),2,78.7,86.2
Gripap1 (GRIP1 associated protein 1),3,56.2,47.8
Srrm2 (serine/arginine repetitive matrix 2),1,51.6,73.7
Srrm2 (serine/arginine repetitive matrix 2),2,122 (active),117
Srrm2 (serine/arginine repetitive matrix 2),3,100,85.8
"Gnb5 (guanine nucleotide binding protein (G protein), beta 5)",1,143 (active),88.1
"Gnb5 (guanine nucleotide binding protein (G protein), beta 5)",2,103,78.6
"Gnb5 (guanine nucleotide binding protein (G protein), beta 5)",3,23,19.7
Il7r (interleukin 7 receptor),1,86.4,77.6
Il7r (interleukin 7 receptor),2,72.9,80.8
Slc12a6,1,62.5,62.6
Slc12a6,2,126 (active),72.1
Slc12a6,3,96.7,74.5
Ube2s (ubiquitin-conjugating enzyme E2S),1,92.2,56.5
Ube2s (ubiquitin-conjugating enzyme E2S),2,69.2,67.5
Ube2s (ubiquitin-conjugating enzyme E2S),3,48.5,93.2
Lyar (Ly1 antibody reactive clone),1,88.7,73.2
Lyar (Ly1 antibody reactive clone),2,113,114
Lyar (Ly1 antibody reactive clone),3,158 (active),68.8
Prex1,1,74.1,65.2
Prex1,2,101,110
Prex1,3,58.5,36.1
Coa6 (cytochrome c oxidase assembly factor 6),1,58.5,110
Coa6 (cytochrome c oxidase assembly factor 6),2,87.6,74.2
Coa6 (cytochrome c oxidase assembly factor 6),3,79.9,78.5
"Kcnq1 (potassium voltage-gated channel, subfamily Q, member 1)",1,82,90.9
"Kcnq1 (potassium voltage-gated channel, subfamily Q, member 1)",2,40.9,55.1
"Kcnq1 (potassium voltage-gated channel, subfamily Q, member 1)",3,61.8,76.2
